Among the data in publication PMC7332966 are binding result and binding signal (fold affinity enhancement vs I+D2) values, retold here.

Amino acid sequences for entries named in this document (tags omitted). A change or cut given only in a name is not applied to a line headed by its entry.
UniProt Q9BXW9: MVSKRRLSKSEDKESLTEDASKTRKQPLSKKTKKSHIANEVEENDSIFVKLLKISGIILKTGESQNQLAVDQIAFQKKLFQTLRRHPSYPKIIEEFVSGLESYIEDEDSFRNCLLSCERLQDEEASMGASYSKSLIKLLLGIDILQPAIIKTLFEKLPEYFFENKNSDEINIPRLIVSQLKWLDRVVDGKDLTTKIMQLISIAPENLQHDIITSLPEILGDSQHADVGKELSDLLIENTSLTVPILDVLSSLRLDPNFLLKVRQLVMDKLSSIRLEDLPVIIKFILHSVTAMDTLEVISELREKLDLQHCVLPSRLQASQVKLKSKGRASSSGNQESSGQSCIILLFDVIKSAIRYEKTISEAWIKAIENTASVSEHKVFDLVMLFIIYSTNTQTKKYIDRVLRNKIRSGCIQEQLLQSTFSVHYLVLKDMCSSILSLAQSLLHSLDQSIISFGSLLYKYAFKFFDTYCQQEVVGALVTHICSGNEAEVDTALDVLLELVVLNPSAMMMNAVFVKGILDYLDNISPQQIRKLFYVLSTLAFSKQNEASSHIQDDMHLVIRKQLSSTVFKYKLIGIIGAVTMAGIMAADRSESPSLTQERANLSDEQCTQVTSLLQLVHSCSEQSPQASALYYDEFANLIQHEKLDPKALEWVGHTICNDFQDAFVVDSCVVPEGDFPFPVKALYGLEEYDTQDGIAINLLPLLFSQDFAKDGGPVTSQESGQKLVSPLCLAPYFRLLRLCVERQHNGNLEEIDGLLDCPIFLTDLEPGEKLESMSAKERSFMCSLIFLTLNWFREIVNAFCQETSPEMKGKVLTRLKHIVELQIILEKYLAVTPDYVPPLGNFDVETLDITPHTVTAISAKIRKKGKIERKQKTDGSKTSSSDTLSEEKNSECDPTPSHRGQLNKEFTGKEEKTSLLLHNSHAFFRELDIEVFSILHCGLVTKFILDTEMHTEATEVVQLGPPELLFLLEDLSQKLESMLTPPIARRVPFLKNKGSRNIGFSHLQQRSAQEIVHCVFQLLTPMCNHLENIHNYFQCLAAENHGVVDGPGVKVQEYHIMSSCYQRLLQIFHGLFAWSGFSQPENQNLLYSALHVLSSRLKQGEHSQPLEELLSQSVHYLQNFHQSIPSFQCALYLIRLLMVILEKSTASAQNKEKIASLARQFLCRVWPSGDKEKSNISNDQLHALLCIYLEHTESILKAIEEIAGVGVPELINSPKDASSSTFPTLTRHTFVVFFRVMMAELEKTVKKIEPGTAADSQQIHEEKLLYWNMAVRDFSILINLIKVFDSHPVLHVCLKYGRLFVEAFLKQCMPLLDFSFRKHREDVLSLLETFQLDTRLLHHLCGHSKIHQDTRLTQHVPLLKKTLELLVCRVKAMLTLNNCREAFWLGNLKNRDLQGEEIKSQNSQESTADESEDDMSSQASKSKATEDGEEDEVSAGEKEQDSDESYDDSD

Data set [1] concerns FANCI R1285Q + FANCD2 (D2). The data set is described as follows: EMSA. As to conditions: 150 mM NaCl, less than P5+P4; EMSA: 16 mM Tris-HCl pH 8, 150 mM NaCl, 4.4% glycerol, 0.07 mg/ml BSA, 7 mM DTT, 4 mM EDTA, 2 nM DNA, on ice 20 min, 4% PAGE in 0.5x TBE (4 C); recombinant protein; label: 5' IRDye700 on both strands. (A gel shift assay detects complexes by their altered migration in electrophoresis.)

For data set [2], the system named is FANCI (I) + FANCD2-Ub (D2Ub). Description: EMSA. The following applies: EMSA: 16 mM Tris-HCl pH 8, 150 mM NaCl, 4.4% glycerol, 0.07 mg/ml BSA, 7 mM DTT, 4 mM EDTA, 2 nM DNA, on ice 20 min, 4% PAGE in 0.5x TBE (4 C), recombinant protein, label: 5' IRDye700 on both strands.
For data set [3], the system named is FANCI (I) + FANCD2 (D2). The data set is described as follows: EMSA. As to conditions: EMSA: 16 mM Tris-HCl pH 8, 150 mM NaCl, 4.4% glycerol, 0.07 mg/ml BSA, 7 mM DTT, 4 mM EDTA, 2 nM DNA, on ice 20 min, 4% PAGE in 0.5x TBE (4 C), recombinant protein, label: 5' IRDye700 on both strands.
Data set [4] relates to FANCI R1285Q + FANCD2-Ub (D2Ub). The data set is described as follows: EMSA. As to conditions: 150 mM NaCl, only small increase over R1285Q I+D2; EMSA: 16 mM Tris-HCl pH 8, 150 mM NaCl, 4.4% glycerol, 0.07 mg/ml BSA, 7 mM DTT, 4 mM EDTA, 2 nM DNA, on ice 20 min, 4% PAGE in 0.5x TBE (4 C); recombinant protein; protein details: His6 (N-term),FLAG (EMSA), His6 removed by 3C; label: 5' IRDye700 on both strands.

The test system of data set [5] is FANCI-Ub (IUb) + FANCD2-Ub (D2Ub). Description: EMSA. The following applies: 150 mM NaCl, comparable to I+D2Ub; EMSA: 16 mM Tris-HCl pH 8, 150 mM NaCl, 4.4% glycerol, 0.07 mg/ml BSA, 7 mM DTT, 4 mM EDTA, 2 nM DNA, on ice 20 min, 4% PAGE in 0.5x TBE (4 C); recombinant protein; label: 5' IRDye700 on both strands.
Data set [6] concerns the target FANCD2-Ub (D2Ub) (Homo sapiens) (UniProt Q9BXW9). Description: EMSA. As to conditions: 150 mM NaCl; EMSA: 16 mM Tris-HCl pH 8, 150 mM NaCl, 4.4% glycerol, 0.07 mg/ml BSA, 7 mM DTT, 4 mM EDTA, 2 nM DNA, on ice 20 min, 4% PAGE in 0.5x TBE (4 C); recombinant protein; protein details: FLAG (EMSA), His6 removed by 3C; label: 5' IRDye700 on both strands.
In data set [7] the test system is FANCI-Ub (IUb) + FANCD2 (D2). The data set is described as follows: PIFE. As to conditions: tighter than I+D2, weaker than IUb+D2Ub, Kd only in bar graph; PIFE: 150 mM NaCl, 125 nM DNA, 22 C.; recombinant protein; label: 5' IRDye700 on both strands.
Data set [8] concerns FANCI (I) + FANCD2-Ub (D2Ub). Description: PIFE. The following applies: PIFE: 150 mM NaCl, 125 nM DNA, 22 C., recombinant protein, label: 5' IRDye700 on both strands; for binding result: Kd only in figure.
The test system of data set [9] is FANCI-Ub(F4A) + FANCD2-Ub (D2Ub). The data set is described as follows: PIFE. As to conditions: Ub F4A on FANCI; PIFE: 150 mM NaCl, 125 nM DNA, 22 C.; recombinant protein; protein details: FLAG (EMSA), His6 removed by 3C; label: 5' IRDye700 on both ….
The test system of data set [10] is FANCI (I) + FANCD2 (D2). The data set is described as follows: PIFE. The following applies: 100 mM NaCl, Kd only in figure; PIFE: 150 mM NaCl, 125 nM DNA, 22 C.; recombinant protein; label: 5' IRDye700 on both strands.
The test system of data set [11] is FANCI R1285Q + FANCD2-Ub (D2Ub). Description: PIFE. The following applies: not substantially enhanced by D2 ubiquitination, unlike WT, Kd only in bar graph; PIFE: 150 mM NaCl, 125 nM DNA, 22 C.; recombinant protein; protein details: His6 (N-term),FLAG (EMSA), His6 removed by 3C; label: 5' IRDye700 on both strands.
In data set [12] the test system is FANCI-Ub(I44A) + FANCD2-Ub (D2Ub). Description: PIFE. As to conditions: Ub I44A on FANCI; PIFE: 150 mM NaCl, 125 nM DNA, 22 C.; recombinant protein; protein details: FLAG (EMSA), His6 removed by 3C; label: 5' IRDye700 on both strands.
Data set [13] addresses T1, FANCI-Ub (IUb) (Homo sapiens) (UniProt Q9NVI1).
T1 sequence (looked up, limits assumed): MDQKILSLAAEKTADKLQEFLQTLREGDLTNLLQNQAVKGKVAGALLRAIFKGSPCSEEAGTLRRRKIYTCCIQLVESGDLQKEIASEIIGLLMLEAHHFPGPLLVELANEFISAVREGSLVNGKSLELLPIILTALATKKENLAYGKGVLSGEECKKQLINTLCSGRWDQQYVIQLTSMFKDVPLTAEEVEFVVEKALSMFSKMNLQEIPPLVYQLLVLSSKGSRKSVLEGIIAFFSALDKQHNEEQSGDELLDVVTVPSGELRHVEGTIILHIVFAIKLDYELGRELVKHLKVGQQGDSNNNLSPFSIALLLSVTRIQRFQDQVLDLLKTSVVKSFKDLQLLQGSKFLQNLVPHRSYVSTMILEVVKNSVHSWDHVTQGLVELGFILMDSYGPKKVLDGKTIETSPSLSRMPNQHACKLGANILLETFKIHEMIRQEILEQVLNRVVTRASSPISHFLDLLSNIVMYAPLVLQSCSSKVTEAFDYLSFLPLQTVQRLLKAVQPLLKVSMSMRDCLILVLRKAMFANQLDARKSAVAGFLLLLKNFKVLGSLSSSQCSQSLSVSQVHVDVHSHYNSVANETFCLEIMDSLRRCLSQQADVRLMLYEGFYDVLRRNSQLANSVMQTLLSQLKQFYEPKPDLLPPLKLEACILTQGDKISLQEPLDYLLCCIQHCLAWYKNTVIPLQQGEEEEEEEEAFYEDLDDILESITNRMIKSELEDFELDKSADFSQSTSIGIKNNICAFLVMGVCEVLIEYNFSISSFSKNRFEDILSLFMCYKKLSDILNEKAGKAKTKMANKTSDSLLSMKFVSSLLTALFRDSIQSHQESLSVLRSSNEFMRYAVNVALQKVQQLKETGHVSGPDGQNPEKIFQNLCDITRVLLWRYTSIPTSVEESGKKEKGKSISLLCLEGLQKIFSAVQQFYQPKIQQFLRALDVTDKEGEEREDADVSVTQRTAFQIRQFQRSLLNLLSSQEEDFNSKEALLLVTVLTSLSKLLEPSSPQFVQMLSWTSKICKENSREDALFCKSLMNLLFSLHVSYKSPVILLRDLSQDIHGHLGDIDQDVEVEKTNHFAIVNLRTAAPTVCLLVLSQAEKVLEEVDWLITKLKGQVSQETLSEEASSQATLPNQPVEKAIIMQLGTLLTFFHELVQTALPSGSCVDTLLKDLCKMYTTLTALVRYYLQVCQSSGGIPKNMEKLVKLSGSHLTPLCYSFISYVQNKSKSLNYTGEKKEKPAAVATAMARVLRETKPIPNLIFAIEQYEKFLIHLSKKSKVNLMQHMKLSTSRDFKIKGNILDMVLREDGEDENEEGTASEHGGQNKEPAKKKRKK
The data set is described as follows: PIFE. The following applies: IUb alone does not bind efficiently (up to 1.5 uM); PIFE: 150 mM NaCl, 125 nM DNA, 22 C.; recombinant protein; protein details: His6-TEV-V5 (N-term, EMSA); label: 5' IRDye700 on both strands.

The subject of data set [14] is FANCI-Ub (IUb) + FANCD2-Ub (D2Ub). Description: PIFE. The following applies: PIFE: 150 mM NaCl, 125 nM DNA, 22 C., recombinant protein, label: 5' IRDye700 on both strands.
Data set [15] has as its target FANCD2-Ub (D2Ub) (Homo sapiens) (UniProt Q9BXW9). Description: PIFE. As to conditions: 150 mM NaCl, up to uM range; PIFE: 150 mM NaCl, 125 nM DNA, 22 C.; recombinant protein; protein details: FLAG (EMSA), His6 removed by 3C; label: 5' IRDye700 on both strands.
The mark [16] stands for this setting: 200 mM NaCl, modest salt effect, Kd only in figure.

Construct, isoform or probe ends are uncertain for at least one entry. For part of these data: No signal at the amounts used counts as a negative. For part of these data: The comparison behind a weaker result is the experiment's own reference, which may not be listed here. For part of these data: Protein sequences can lack the tags named with them. For part of these data: At least one verdict rests on a figure or table, not on a statement of the authors. For part of these data: Whether high values mean tight binding is not given here for every scale.

With “CGATCGGTAACGTATGCTGAATCTGGTGCTGG (double strand) [ds32F]”, the binding result was “binds” in data set [1]; “binds” in data set [2] (100 mM NaCl, Kd only in figure); “binds” in data set [2] (150 mM NaCl); “binds” in data set [2] (setting [16]); “binds” in data set [2] (His6-FANCI, 150 mM NaCl); “binds” in data set [3] (100 mM NaCl, Kd only in figure). Further, the binding result was “binds more weakly” in [3] (150 mM NaCl, weaker than I+D2Ub); “binds” in [3] (setting [16]); “binds more weakly” in [3] (His6-FANCI, 150 mM NaCl, weaker than I+D2Ub); “binds more weakly” in data set [4]; “binds” in data set [5]; “no binding” in data set [6]. Further, the binding result in data set [7] is listed as “binds more weakly”; in [8] (100 mM NaCl), “binds”; in data set [8] (200 mM NaCl, highly salt sensitive), “binds”; in data set [9] it was “binds”; in data set [10] it was “binds”; in data set [11], “binds more weakly”. Further, the binding result is given as “binds” in data set [12]; “binds more weakly” in data set [13]; “binds” in data set [14] (150 mM NaCl, not significantly different from I+D2Ub); “binds” in [14] (WT ubiquitin on FANCI); “no binding” in [15]. Moreover, the binding signal (fold affinity enhancement vs I+D2) in data set [8] (150 mM NaCl, Kd only in bar graph) turned out to be 10.
